Compound in this test: CC1Cc2ccccc2N1C(=O)C1CCCN(C1)C(=O)CCl (mixture of isomers) [TRIM25 ligand 11 (diastereomer mixture)]
In words: probe-labelled cysteine peptide fold change vs DMSO (competition) (log2 fold change); higher = less target engagement (more negative = stronger competition). Conditions: THP-1, incubation time: 4 h.

The chains behind the UniProt entries cited, without tags or fusion partners. Where a name states a change or a piece, a line headed by the entry shows the natural chain unless it says otherwise.
UniProt Q01082, whole entry, looked up: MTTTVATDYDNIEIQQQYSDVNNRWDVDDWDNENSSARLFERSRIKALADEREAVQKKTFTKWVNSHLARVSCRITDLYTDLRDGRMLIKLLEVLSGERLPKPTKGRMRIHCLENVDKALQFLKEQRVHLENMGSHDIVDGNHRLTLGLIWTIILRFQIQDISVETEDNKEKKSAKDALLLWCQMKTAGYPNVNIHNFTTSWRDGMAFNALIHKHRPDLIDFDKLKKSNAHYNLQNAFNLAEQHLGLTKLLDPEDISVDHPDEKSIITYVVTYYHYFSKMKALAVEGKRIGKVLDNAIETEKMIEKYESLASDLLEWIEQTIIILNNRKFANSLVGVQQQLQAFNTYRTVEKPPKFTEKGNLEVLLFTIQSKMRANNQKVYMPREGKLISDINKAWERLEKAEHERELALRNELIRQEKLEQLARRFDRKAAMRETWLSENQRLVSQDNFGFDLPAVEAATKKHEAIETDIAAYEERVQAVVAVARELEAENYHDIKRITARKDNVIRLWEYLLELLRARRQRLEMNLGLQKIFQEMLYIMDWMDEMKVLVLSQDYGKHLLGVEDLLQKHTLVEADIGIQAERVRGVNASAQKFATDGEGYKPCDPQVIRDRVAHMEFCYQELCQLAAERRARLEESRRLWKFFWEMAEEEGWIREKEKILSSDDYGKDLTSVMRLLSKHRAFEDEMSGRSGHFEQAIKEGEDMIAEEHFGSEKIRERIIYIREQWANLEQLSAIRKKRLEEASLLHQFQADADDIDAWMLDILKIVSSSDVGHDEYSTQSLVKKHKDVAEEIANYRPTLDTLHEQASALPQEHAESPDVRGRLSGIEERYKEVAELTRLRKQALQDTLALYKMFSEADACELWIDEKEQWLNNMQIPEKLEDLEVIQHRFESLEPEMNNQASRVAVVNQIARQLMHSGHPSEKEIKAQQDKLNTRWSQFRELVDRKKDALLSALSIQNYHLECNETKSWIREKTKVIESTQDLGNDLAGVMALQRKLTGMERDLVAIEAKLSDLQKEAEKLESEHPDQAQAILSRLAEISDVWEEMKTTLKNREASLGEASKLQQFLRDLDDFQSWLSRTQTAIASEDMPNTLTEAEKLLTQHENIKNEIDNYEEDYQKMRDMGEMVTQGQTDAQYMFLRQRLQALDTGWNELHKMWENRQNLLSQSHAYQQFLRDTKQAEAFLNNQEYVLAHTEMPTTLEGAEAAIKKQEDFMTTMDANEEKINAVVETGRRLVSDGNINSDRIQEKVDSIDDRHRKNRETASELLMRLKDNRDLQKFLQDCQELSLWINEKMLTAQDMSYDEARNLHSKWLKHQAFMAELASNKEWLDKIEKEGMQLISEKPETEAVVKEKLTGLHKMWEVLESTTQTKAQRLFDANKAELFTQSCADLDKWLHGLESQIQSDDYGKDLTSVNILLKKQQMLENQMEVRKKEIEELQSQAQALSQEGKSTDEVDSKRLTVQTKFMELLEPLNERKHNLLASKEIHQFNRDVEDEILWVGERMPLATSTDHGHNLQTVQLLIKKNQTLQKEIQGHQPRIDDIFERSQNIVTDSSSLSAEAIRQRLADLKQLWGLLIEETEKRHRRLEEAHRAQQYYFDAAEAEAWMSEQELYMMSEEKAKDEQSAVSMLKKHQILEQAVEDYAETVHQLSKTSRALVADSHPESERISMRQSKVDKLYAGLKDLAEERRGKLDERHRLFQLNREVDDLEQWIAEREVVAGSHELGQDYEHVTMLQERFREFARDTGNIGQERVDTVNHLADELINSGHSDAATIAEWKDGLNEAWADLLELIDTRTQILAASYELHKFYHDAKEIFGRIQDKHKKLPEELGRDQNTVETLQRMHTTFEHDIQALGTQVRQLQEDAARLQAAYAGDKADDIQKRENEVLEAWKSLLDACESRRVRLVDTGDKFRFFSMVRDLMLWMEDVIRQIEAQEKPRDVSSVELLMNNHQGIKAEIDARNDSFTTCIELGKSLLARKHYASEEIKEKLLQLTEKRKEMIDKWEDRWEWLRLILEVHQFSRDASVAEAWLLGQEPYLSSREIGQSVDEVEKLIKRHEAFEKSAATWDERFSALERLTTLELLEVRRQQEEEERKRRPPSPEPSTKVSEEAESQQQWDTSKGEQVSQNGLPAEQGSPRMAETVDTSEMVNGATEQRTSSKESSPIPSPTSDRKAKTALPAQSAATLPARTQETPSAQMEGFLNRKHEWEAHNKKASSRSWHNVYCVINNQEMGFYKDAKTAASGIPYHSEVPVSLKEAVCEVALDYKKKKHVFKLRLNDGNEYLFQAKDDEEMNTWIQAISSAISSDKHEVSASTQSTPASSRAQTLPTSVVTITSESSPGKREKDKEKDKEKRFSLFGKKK
UniProt Q92673: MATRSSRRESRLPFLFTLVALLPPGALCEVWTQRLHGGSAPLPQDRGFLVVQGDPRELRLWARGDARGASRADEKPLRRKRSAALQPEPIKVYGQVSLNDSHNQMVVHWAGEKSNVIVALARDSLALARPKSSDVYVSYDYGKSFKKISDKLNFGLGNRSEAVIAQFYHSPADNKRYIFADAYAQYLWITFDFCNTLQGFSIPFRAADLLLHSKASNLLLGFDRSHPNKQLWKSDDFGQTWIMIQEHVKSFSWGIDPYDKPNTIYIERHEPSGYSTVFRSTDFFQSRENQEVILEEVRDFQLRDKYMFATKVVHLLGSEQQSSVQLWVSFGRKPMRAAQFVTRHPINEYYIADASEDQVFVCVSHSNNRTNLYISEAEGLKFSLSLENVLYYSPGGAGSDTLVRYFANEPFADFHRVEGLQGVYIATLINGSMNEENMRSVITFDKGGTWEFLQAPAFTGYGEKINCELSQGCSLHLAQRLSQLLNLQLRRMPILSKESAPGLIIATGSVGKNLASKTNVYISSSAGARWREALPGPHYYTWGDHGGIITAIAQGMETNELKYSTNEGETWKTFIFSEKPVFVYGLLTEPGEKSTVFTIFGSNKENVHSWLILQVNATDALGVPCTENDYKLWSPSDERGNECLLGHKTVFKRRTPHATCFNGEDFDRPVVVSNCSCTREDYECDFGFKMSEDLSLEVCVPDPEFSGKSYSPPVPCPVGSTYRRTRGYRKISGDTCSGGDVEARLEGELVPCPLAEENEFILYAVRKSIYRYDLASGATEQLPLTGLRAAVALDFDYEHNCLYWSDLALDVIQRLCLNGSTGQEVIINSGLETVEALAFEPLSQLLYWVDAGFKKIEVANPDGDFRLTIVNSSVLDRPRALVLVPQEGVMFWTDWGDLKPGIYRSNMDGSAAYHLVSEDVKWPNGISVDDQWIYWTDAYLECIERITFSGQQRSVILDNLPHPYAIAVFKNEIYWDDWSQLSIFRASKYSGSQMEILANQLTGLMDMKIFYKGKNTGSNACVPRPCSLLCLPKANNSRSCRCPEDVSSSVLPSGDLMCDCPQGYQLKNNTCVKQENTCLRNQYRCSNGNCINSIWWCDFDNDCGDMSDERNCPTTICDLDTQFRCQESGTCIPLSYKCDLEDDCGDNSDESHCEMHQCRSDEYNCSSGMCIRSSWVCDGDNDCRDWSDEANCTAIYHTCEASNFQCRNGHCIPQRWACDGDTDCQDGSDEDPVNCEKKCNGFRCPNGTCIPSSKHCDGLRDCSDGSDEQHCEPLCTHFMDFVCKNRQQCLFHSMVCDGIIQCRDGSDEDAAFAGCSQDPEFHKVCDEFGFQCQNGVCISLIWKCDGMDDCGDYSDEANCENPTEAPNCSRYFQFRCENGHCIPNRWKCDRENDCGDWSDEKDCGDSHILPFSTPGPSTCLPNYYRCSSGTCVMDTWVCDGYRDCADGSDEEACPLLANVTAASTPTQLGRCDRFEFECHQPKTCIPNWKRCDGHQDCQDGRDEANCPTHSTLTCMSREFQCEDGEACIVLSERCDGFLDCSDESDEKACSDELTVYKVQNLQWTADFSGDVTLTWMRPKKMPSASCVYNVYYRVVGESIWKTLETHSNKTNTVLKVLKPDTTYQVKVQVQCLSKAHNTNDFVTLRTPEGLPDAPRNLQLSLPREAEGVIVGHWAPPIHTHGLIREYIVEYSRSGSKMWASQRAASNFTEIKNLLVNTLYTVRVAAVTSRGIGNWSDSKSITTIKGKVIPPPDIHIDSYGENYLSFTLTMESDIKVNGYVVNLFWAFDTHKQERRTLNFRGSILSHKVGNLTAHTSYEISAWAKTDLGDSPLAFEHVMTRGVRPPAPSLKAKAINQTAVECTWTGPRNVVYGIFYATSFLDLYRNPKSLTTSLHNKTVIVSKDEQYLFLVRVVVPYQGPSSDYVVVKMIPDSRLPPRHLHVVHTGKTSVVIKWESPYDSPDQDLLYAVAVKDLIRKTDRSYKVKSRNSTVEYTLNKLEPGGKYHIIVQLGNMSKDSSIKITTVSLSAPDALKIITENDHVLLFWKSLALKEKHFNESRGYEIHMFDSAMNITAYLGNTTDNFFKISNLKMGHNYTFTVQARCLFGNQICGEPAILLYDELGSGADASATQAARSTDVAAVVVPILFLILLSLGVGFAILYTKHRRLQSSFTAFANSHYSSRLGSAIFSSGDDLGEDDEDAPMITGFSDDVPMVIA
UniProt O15270: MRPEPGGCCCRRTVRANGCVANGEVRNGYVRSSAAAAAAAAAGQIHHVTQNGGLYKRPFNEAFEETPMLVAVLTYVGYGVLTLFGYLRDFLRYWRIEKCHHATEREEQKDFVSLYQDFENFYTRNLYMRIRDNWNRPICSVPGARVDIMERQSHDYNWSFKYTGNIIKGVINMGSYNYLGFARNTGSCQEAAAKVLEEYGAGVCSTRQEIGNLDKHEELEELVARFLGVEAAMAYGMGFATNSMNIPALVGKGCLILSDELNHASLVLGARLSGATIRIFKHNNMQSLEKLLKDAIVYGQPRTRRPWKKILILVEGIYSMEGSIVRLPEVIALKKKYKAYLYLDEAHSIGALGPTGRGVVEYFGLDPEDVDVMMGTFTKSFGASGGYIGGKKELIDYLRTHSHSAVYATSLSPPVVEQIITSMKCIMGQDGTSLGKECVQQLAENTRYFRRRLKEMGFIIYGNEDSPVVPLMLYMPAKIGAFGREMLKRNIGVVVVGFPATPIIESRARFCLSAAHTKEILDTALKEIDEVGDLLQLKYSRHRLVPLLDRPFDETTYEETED
UniProt Q9UNH7: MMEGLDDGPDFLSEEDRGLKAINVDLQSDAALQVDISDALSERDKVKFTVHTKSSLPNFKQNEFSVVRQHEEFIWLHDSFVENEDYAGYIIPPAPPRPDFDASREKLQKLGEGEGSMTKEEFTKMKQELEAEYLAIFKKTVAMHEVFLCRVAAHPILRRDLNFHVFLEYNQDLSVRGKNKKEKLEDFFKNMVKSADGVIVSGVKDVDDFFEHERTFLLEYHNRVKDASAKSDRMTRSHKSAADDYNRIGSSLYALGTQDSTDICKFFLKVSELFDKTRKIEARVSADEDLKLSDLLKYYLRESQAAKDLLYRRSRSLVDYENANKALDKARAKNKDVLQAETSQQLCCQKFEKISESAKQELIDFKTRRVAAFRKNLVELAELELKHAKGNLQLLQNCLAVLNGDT
UniProt Q9HD15: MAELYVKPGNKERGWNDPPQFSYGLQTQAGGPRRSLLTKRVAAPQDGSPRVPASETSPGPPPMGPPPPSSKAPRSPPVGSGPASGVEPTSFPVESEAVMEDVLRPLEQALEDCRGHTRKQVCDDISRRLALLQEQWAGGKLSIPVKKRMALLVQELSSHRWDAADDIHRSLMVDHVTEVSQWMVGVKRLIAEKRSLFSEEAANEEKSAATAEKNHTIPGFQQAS
UniProt O76094: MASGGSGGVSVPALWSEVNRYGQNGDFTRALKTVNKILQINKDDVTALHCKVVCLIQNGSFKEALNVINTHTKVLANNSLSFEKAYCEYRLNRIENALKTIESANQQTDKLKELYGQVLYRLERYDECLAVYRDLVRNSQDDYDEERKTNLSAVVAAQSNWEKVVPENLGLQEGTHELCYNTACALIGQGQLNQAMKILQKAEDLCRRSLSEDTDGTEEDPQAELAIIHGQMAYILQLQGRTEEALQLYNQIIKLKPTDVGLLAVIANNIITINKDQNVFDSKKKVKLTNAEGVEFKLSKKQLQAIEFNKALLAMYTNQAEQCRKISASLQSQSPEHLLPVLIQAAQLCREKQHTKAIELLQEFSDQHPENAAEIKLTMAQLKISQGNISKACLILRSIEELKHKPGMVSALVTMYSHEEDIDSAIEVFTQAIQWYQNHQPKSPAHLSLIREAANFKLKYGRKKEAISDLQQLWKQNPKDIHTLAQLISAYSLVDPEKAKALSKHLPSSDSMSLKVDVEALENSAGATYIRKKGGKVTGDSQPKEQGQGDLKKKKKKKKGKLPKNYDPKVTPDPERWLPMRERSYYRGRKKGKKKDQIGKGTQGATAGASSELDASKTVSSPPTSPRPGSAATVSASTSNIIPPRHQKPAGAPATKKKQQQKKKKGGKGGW
UniProt P09234, whole entry, looked up: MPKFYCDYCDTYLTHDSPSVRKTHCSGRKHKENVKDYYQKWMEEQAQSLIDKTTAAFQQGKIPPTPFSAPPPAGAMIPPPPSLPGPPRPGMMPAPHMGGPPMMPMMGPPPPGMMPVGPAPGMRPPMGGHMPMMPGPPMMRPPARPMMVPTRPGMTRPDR

The results in this text go back to the supplement of paper PMC12067093, “Discovery and optimisation of a covalent ligand for TRIM25 and its application to targeted protein ubiquitination” (Chemical Science, 2025).

The other results are listed elsewhere or left out.
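Further: competitive chemoproteomic profiling in live THP-1 cells with an iodoacetamide desthiobiotin (IA-DTB) probe, comparing probe-labelled peptide intensities in compound-treated cells against DMSO-treated controls.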

As for “SOWAHD_A6NJG2_109_LCLEPR (UniProt A6NJG2)”, the “probe-labelled cysteine peptide fold change” value (10 µM) was -0.0136 and the “probe-labelled cysteine peptide fold change” value (50 µM) was found to be 0.102.
Consider “SPTBN1_Q01082_964_DALLSALSIQNYHLECNETK (UniProt Q01082)”, for which the “probe-labelled cysteine peptide fold change” value was 0.143 (10 µM) and 0.206 (50 µM).
Taken in the same sequence, the figures for “SP3_Q02447_683_KFVCPECSK (UniProt Q02447)” were 0.0895 and 0.174.
On to “SRM_P19623_89_DEFSYQEMIANLPLCSHPNPR (UniProt P19623)”, for which the “probe-labelled cysteine peptide fold change” value reads like this: (10 µM) 0.193; (50 µM) -0.0109.
For the target “SP1_P08047_663_WHTGERPFMCTWSYCGK (UniProt P08047)”, the “probe-labelled cysteine peptide fold change” value is, setting by setting: (10 µM) -0.0192; (50 µM) -0.0115.
Taken in the same sequence, the figures for “SORL1_Q92673_1484_TCIPNWK (UniProt Q92673)” were -0.112 and -0.239.
Taken in the same sequence, the figures for “SREBF2_Q12772_787_ESLYCAQR (UniProt Q12772)” were -0.0085 and 0.243.
On to “SRM_P19623_25_ETCSLWPGQALSLQVEQLLHHR (UniProt P19623)”, for which the “probe-labelled cysteine peptide fold change” value by setting is: (10 µM) 0.0438; (50 µM) 0.0281.
Taken in the same sequence, the figures for “SNRPB_P14678_19_CILQDGR (UniProt P14678)” were 0.00174 and 0.144.
Taken in the same sequence, the figures for “SP140L_Q9H930_429_VFHEDCHIPPVESEK (UniProt Q9H930)” were -0.144 and 0.236.
Turning to “SRP9_P49458_48_VTDDLVCLVYK (UniProt P49458)”, the “probe-labelled cysteine peptide fold change” value is, setting by setting: (10 µM) -0.196; (50 µM) -0.113.
“SPTLC2_O15270_204_VLEEYGAGVCSTR (UniProt O15270)”: the “probe-labelled cysteine peptide fold change” value came to 0.143 (10 µM) and 0.101 (50 µM).
Consider “SNX6_Q9UNH7_347+348_DVLQAETSQQLCCQK (UniProt Q9UNH7)”, for which the “probe-labelled cysteine peptide fold change” value is 0.0531 (10 µM) and -0.03 (50 µM).
As to “SP140_Q13342_686_SQNNSSVDPCMR (UniProt Q13342)”, the “probe-labelled cysteine peptide fold change” value reads like this: (10 µM) -0.0579; (50 µM) -0.227.
Taken in the same sequence, the figures for “SRA1_Q9HD15_134_QVCDDISR (UniProt Q9HD15)” were -0.0271 and -0.0296.
On to “SPTBN1_Q01082_619+624_VAHMEFCYQELCQLAAER (UniProt Q01082)”, for which the “probe-labelled cysteine peptide fold change” value (10 µM) turned out to be 0.0536 and the “probe-labelled cysteine peptide fold change” value (50 µM) was -0.262.
Regarding “SRP68_Q9UHB9_586_QANLVHFPPGFQPIPCKPLFFDLALNHVAFPPLEDKLEQK (UniProt Q9UHB9)”, the “probe-labelled cysteine peptide fold change” value is, setting by setting: (10 µM) -0.375; (50 µM) -0.439.
Regarding “SPATA5L1_Q9BVQ7_78_RDGADGFVQLDPLCASPGAAVGASR (UniProt Q9BVQ7)”, the “probe-labelled cysteine peptide fold change” value (10 µM) came out at 0.0287 and the “probe-labelled cysteine peptide fold change” value (50 µM) worked out at 0.405.
Turning to “SPTLC2_O15270_139_IRDNWNRPICSVPGAR (UniProt O15270)”, the “probe-labelled cysteine peptide fold change” value is -0.185 (10 µM) and 0.0938 (50 µM).
For the target “SQSTM1_Q13501_113_RDHRPPCAQEAPR (UniProt Q13501)”, the “probe-labelled cysteine peptide fold change” value (10 µM) is -0.0908 and the “probe-labelled cysteine peptide fold change” value (50 µM) is -0.174.
As for “SP100_P23497_309_VECQAQAR (UniProt P23497)”, the “probe-labelled cysteine peptide fold change” value (10 µM) is -0.044 and the “probe-labelled cysteine peptide fold change” value (50 µM) was -0.254.
“SRP72_O76094_323_ALLAMYTNQAEQCR (UniProt O76094)”: the “probe-labelled cysteine peptide fold change” value is, setting by setting: (10 µM) -0.0105; (50 µM) 0.0132.
Taken in the same sequence, the figures for “SPAG5_Q96R06_704_VLEQVSAQLEECK (UniProt Q96R06)” were -0.0111 and -0.0065.
Taken in the same sequence, the figures for “SRP72_O76094_54_VVCLIQNGSFK (UniProt O76094)” were 0.0566 and 0.0489.
Taken in the same sequence, the figures for “SPAG1_Q07617_633_EEGNQCVNDK (UniProt Q07617)” were -0.0737 and -0.0909.
Regarding “SPEN_Q96T58_877_NRLELMPCVVLTR (UniProt Q96T58)”, the “probe-labelled cysteine peptide fold change” value is -0.0652 (10 µM) and -0.00885 (50 µM).
Taken in the same sequence, the figures for “SNRPC_P09234_25_KTHCSGR (UniProt P09234)” were -0.332 and -0.766.
On to “SORL1_Q92673_1376_CENGHCIPNR (UniProt Q92673)”, for which the “probe-labelled cysteine peptide fold change” value is -0.0127 (10 µM) and 0.156 (50 µM).
As to “SOGA1_O94964_499_KADAVLGCSVK (UniProt O94964)”, the “probe-labelled cysteine peptide fold change” value (10 µM) is -0.102 and the “probe-labelled cysteine peptide fold change” value (50 µM) is -0.068.
As to “SPTLC1_O15269_192_AACFAIQK (UniProt O15269)”, the “probe-labelled cysteine peptide fold change” value is, setting by setting: (10 µM) 0.0936; (50 µM) -0.0125.
As to “SPOUT1_Q5T280_10_KRPCGPGEHGQR (UniProt Q5T280)”, the “probe-labelled cysteine peptide fold change” value (10 µM) was -0.0193 and the “probe-labelled cysteine peptide fold change” value (50 µM) was -0.194.
On to “SNX6_Q9UNH7_348_DVLQAETSQQLCCQK (UniProt Q9UNH7)”, for which the “probe-labelled cysteine peptide fold change” value (10 µM) turned out to be 0.0919 and the “probe-labelled cysteine peptide fold change” value (50 µM) is 0.129.
Taken in the same sequence, the figures for “SORD_Q00796_301_YCNTWPVAISMLASK (UniProt Q00796)” were 0.311 and -0.116.
For the target “SRM_P19623_71_TYGNVLVLDGVIQCTERDEFSYQEMIANLPLCSHPNPR (UniProt P19623)”, the “probe-labelled cysteine peptide fold change” value is, setting by setting: (10 µM) 0.207; (50 µM) 0.393.
For the target “SNX27_Q96L92_519_VFCELK (UniProt Q96L92)”, the “probe-labelled cysteine peptide fold change” value was found to be 0.0222 (10 µM) and 0.295 (50 µM).
